Results deposited as PubChem BioAssay AID1508597 (Cure First, 2020).
Shown is an unselected part of the about 2,100 reagents, under one of the conditions tested. 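Calls flag viability under 80% in either arm, not effects specific to rucaparib; the reference for percent is not stated.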 A number with no mark means an inactive call. A reagent listed more than once was tested more than once; the source does not tell the runs apart. The record does not give: the 100% reference.

- Screen: 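Survival screen with siRNA in ovarian cancer cells derived from patients, with or without rucaparib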 (primary screen)
- Cell system: human ovarian carcinoma lines grown from tumours: OCI-P5x (papillary serous) and OCI-C5x (clear cell)
- Knock-down reagent: siRNA pool against human genes, 1.25 pmol siRNA per well
- Duration: 72 h or 96 h, depending on the cell culture
- Challenge: rucaparib 20 µM (about IC30) or vehicle, present until read-out
- Rucaparib or vehicle: Vehicle
- Cell line: OCI-P5x (serous)
- Measurement: 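ATP luminescence measured at 72 or 96 h according to the culture, then normalised and expressed as percent viability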
- Direction: viability, normalised: higher = more viable cells remaining
- Active means: 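Active when normalised viability falls below 80 percent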
- Meaning of the calls: active = viability under 80%; inactive = viability 80% or more

CLDN9, technical replicate 1 gave viability, normalised (%) = 74.4 (active).
CLDN9, technical replicate 2 scored viability, normalised (%) = 69.7 (active).
For CLDN9, technical replicate 3 the deposit lists viability, normalised (%) = 79.2 (active).
PRDM8, technical replicate 1 gave viability, normalised (%) = 50.5 (active).
With PRDM8, technical replicate 2, the values are viability, normalised (%) = 60.6 (active).
PRDM8, technical replicate 3 gave viability, normalised (%) = 75.9 (active).
With POLQ, technical replicate 1, the entry reads viability, normalised (%) = 61.9 (active).
With POLQ, technical replicate 1 the deposit lists viability, normalised (%) = 52.4 (active).
For POLQ, technical replicate 2, the values are viability, normalised (%) = 67.5 (active).
POLQ, technical replicate 2 gave viability, normalised (%) = 50.9 (active).
With POLQ, technical replicate 3 the deposit lists viability, normalised (%) = 76.9 (active).
POLQ, technical replicate 3 scored viability, normalised (%) = 65.1 (active).
With EP300, technical replicate 1 the deposit lists viability, normalised (%) = 87.5.
EP300, technical replicate 1 gave viability, normalised (%) = 58.5 (active).
EP300, technical replicate 2 scored viability, normalised (%) = 63.7 (active).
EP300, technical replicate 2 scored viability, normalised (%) = 91.3.
EP300, technical replicate 3 gave viability, normalised (%) = 70.5 (active).
EP300, technical replicate 3 showed viability, normalised (%) = 65 (active).
ZAP70, technical replicate 1 gave viability, normalised (%) = 105.
ZAP70, technical replicate 2 gave viability, normalised (%) = 75.3 (active).
ZAP70, technical replicate 3 showed viability, normalised (%) = 81.

Reprinted from the entries so far for reference:
POLQ, technical replicate 2: viability, normalised (%) = 67.5 (active)
POLQ, technical replicate 2: viability, normalised (%) = 50.9 (active)
POLQ, technical replicate 3: viability, normalised (%) = 76.9 (active)

Continued.
With ACVR2A, technical replicate 1, the entry reads viability, normalised (%) = 71 (active).
For ACVR2A, technical replicate 2, the entry reads viability, normalised (%) = 65.7 (active).
ACVR2A, technical replicate 3 gave viability, normalised (%) = 54.9 (active).
With PAK6, technical replicate 1, the values are viability, normalised (%) = 63.4 (active).
PAK6, technical replicate 1 showed viability, normalised (%) = 87.7.
With PAK6, technical replicate 2 the deposit lists viability, normalised (%) = 70.8 (active).
With PAK6, technical replicate 2, the entry reads viability, normalised (%) = 83.7.
PAK6, technical replicate 3 gave viability, normalised (%) = 86.4.
For PAK6, technical replicate 3, the values are viability, normalised (%) = 93.3.
With PIWIL4, technical replicate 1, the values are viability, normalised (%) = 57.6 (active).
PIWIL4, technical replicate 2 gave viability, normalised (%) = 59.8 (active).
For PIWIL4, technical replicate 3, the values are viability, normalised (%) = 74.5 (active).
DNAJC1, technical replicate 1 scored viability, normalised (%) = 52 (active).
With DNAJC1, technical replicate 2 the deposit lists viability, normalised (%) = 54.3 (active).
With DNAJC1, technical replicate 3 the deposit lists viability, normalised (%) = 60.3 (active).
With RPS6KB1, technical replicate 1, the entry reads viability, normalised (%) = 58.5 (active).
RPS6KB1, technical replicate 1 scored viability, normalised (%) = 59.6 (active).
RPS6KB1, technical replicate 2 showed viability, normalised (%) = 61.4 (active).
With RPS6KB1, technical replicate 2, the values are viability, normalised (%) = 56.4 (active).
For RPS6KB1, technical replicate 3, the values are viability, normalised (%) = 67.3 (active).
RPS6KB1, technical replicate 3 scored viability, normalised (%) = 54.8 (active).
